This passage reports cell number change and AC50 results from PubChem BioAssay AID2685 (National Center for Advancing Translational Sciences (NCATS), 2010).

What is called AC50 is the concentration giving half of the maximal activity seen.

The assay is described as follows: qHTS Assay for Lipid Storage Modulators in Drosophila S3 Cells.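 For cell number change: cells counted by Cell Tracker Red CMTPX staining in the red channel.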 As to conditions: BODIPY lipid droplet fluorescence, 18-24 h; for cell number change: measured here: cell count max response, cells fed with added oleic acid. Put shortly:
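Laser-scanning cytometry quantifies lipid droplet accumulation (500–530 nm total intensity; droplet/cell object ratio) in oleic acid-fed (400 uM added) Drosophila S3 cells treated with a concentration series. 20 uM Triacsin C defined 100% inhibition.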
A general note: qHTS replaces the single test concentration by a dilution series.

The mark [1] stands for this setting: measured here: cell number channel AC50, cells fed with added oleic acid.
Setting [2] is: measured here: lipid fluorescence (Fed channel) AC50, cells fed with added oleic acid.

Some of the results follow. Further columns of the screen follow, without active or inactive calls. Compounds called inactive in the main read-out are mostly missing here. Words in brackets tell the shape of the fitted curve; partial curves, single points and poor fits give uncertain potencies.

`O=C(/C=C/c1ccc2c(c1)OCCCO2)c1ccc2ccccc2c1O`: the cell number change came out at 73.7%. Besides, the AC50 under setting [1] is 20.6 µM [rising, single point]. In addition, the AC50 under setting [2] is 18.4 µM [rising, partial curve].

Regarding `CCOC(=O)c1ccccc1NC(=O)COC(=O)CSCC(=O)Nc1cc(C)on1`, the cell number change came out at 36.5%. Also, the AC50 under setting [1] was 1.64 µM [rising, partial curve].

With `CN(C)C(=O)c1cn(-c2ccc(Cl)cc2)c(=O)c2ccccc12`, the cell number change was found to be 3.64%. For the same compound, under setting [1], the AC50 is 0.731 µM [falling, single point].

Take `OCCn1c(SC2CCCCC2)nc2ccccc21`: the cell number change is 12.2%. Besides, the AC50 under setting [1] is 0.651 µM [falling, single point].

For the compound `c1ccc(-c2nc(N3CCNCC3)nc3ccccc23)cc1`, the cell number change was -1.98%. For the same compound, under setting [2], the AC50 is 6.51 µM [rising, single point].

As to `Cc1ccc(C2(C)NC(=O)N(CC(=O)Nc3ccccc3N3CCCCC3)C2=O)cc1` (stereo not given), the cell number change stood at 103%. For the same compound, the AC50 under setting [1] is 16.4 µM [rising, partial curve]. Moreover, under setting [2], the AC50 is 5.17 µM [rising, partial curve].

Regarding `C/C(=N\NC(=O)c1ccccc1O)c1ccc(NC(=O)c2ccccc2)cc1`, the cell number change was -38.5%. For the same compound, the AC50 under setting [1] is 1.03 µM [falling, full curve]. Moreover, under setting [2], the AC50 was 6.51 µM [falling, single point].

`CCc1ccc(/C=C/c2c[nH]c3ccccc23)[n+](CC)c1`: the cell number change is -27.5%. For the same compound, the AC50 under setting [2] is 16.4 µM [falling, single point].

For the compound `COC(=O)c1cc(C(=O)c2c(C)cc3ccccn23)cc([N+](=O)[O-])c1`, the cell number change was -30.5%.

`CC(C)c1ccc(NC(=O)C2CCN(S(C)(=O)=O)CC2)cc1`: the cell number change came out at 0.267%. The AC50 under setting [2] is 0.731 µM [rising, single point].

As to `COc1ccc(C2(C(=O)O)CCCC2)cc1`, the cell number change was -0.144%. In addition, the AC50 under setting [2] is 7.31 µM [falling, partial curve].

Regarding `COC(=O)C(C)Sc1n[nH]c(=S)s1` (stereo not given), under setting [2], the AC50 was 13 µM [falling, partial curve].

For the compound `O=C(Nc1cccc(NC(=O)C2CC3CCCC(C2)C3=O)n1)C1CC2CCCC(C1)C2=O` (stereo not given), the cell number change was -51.3%. The AC50 under setting [1] was 18.4 µM [falling, single point]. For the same compound, the AC50 under setting [2] was 29.1 µM [falling, single point].

Take `Cc1cc(OC(=O)c2ccco2)c2c(C)cc(=O)oc2c1`: the cell number change is -18.5%. Also, under setting [1], the AC50 is 7.31 µM [falling, partial curve]. Besides, the AC50 under setting [2] is 3.26 µM [falling, partial curve, poor fit].

On to `COc1ccc(-c2ccc(-c3noc(-c4ccccc4OC)n3)c(OC)n2)cc1`, for which the cell number change is 6.2%. Moreover, the AC50 under setting [2] is 29.1 µM [rising, single point].

In the case of `O=C(N=Nc1c(O)[nH]c2ccccc12)c1cc(NS(=O)(=O)c2cccs2)cc(NS(=O)(=O)c2cccs2)c1`, the cell number change came to 21%. For the same compound, under setting [2], the AC50 is 3.66 µM [rising, full curve].

Regarding `Cc1cc(C)c2nc(C)cc(N/N=C/c3ccc(O)cc3)c2c1`, the cell number change was -68%. Also, the AC50 under setting [1] is 18.4 µM [falling, single point]. For the same compound, the AC50 under setting [2] was 18.4 µM [falling, partial curve, poor fit].

Turning to `NC(=O)c1nsc(C(=O)N(Cc2ccco2)C(C(=O)NCc2ccccc2)c2ccc(O)cc2)c1N` (stereo not given), the cell number change amounted to 10.4%.

`Cc1nnc(SCC(=O)Nc2ccc(Br)cc2)n(N)c1=O`: the cell number change was 36.7%.

With `COc1cc(/C=C/C(=O)OCC(=O)c2ccc3c(c2)NC(=O)CO3)ccc1OC(F)F`, the cell number change is -9.02%. In addition, the AC50 under setting [2] was 29.1 µM [falling, single point].

Take `CC1CCN(CCc2nc3cc(NC(=O)Nc4ccccc4)ccc3n2C)CC1`: the cell number change came to 3.25%. In addition, under setting [2], the AC50 was 6.51 µM [rising, single point].

For `Cc1ccc(CNC2CCCCC2)s1`, the cell number change amounted to 5.25%. Moreover, the AC50 under setting [2] is 18.4 µM [rising, single point].

As to `O=c1ccc2cc3c(-c4ccccc4)coc3cc2o1`, the AC50 under setting [2] was 29.1 µM [rising, single point].

Turning to `CC(C)CC(=O)N(c1ccc(F)cc1)C1C=CS(=O)(=O)C1` (stereo not given), the cell number change was -5.04%.

Turning to `COc1ccc(CC(=O)Nc2cccc(Cl)c2C)cc1S(=O)(=O)N1CCOCC1`, the cell number change stood at 47.1%. For the same compound, the AC50 under setting [1] is 29.1 µM [rising, single point]. Besides, the AC50 under setting [2] was 29.1 µM [rising, partial curve, poor fit].

For the compound `COc1ccc([C@H]2CC(=O)C=C(c3ccc(F)cc3OCc3ccccc3)C2)cc1OC`, the cell number change was -6.02%. The AC50 under setting [2] was 11.6 µM [falling, single point].

`COc1ccc(C)cc1NC(C)C(=O)NC(=O)NC1CCCCC1` (stereo not given): the cell number change is -62.2%. For the same compound, under setting [1], the AC50 is 4.11 µM [falling, full curve]. The AC50 under setting [2] was 7.31 µM [falling, partial curve, poor fit].

On to `O=C(/C=C\c1ccc2c(c1)OCO2)Nc1c2c(nn1-c1ccc(Cl)cc1)CSC2`, for which the cell number change was 26.2%. Also, under setting [2], the AC50 is 0.082 µM [rising, full curve, poor fit].

Regarding `COC(=O)[C@H](Cc1ccccc1)NC(=O)NCCC1=CCCCC1`, the cell number change is -43%. Also, the concentration at half-maximal activity (AC50) under setting [1] was 1.64 µM [falling, full curve]. The AC50 under setting [2] is 3.66 µM [falling, full curve].

Regarding `CCCCC(C(=O)NC(C)c1ccccc1)C(=O)NC(C)c1ccccc1` (stereo not given), the cell number change was -20%. Besides, under setting [2], the AC50 was 8.2 µM [falling, partial curve, poor fit].

For the compound `COC(=O)COc1ccc2c(-c3ccc(OC)cc3)cc(=O)oc2c1`, the cell number change was -16.8%. For the same compound, the AC50 under setting [2] is 2.31 µM [falling, full curve, poor fit].

Regarding `Cc1c(NC(=O)COC(=O)Cc2ccc(F)cc2)c(=O)n(-c2ccccc2)n1C`, the cell number change is -11.2%.

Regarding `Cc1ccc(-c2cc3ccccc3nc2N2CCCC2)cc1`, the cell number change is 40.2%. In addition, the AC50 under setting [1] was 8.2 µM [rising, partial curve]. The AC50 under setting [2] is 5.8 µM [rising, full curve].

Regarding `Cc1cc(C)c2ccc(NN)nc2c1O`, the cell number change was 12.2%.

For the compound `COc1cc(OC)c(S(=O)(=O)NC(C)C)cc1C(=O)O`, the cell number change was -8.48%. Further, under setting [2], the AC50 was 29.1 µM [falling, single point].

As for `CC(C)Oc1ccc(CNC(=O)CCCN2C(=O)C(c3ccccc3)Oc3cccnc32)cc1` (stereo not given), the cell number change was determined as 1.53%.

`CCn1nnnc1SCC(=O)NCc1cccs1`: the cell number change is -5.5%.

Regarding `COc1ccc(-n2ncc3c(=O)n(CC(=O)N4CCCc5ccccc54)cnc32)cc1`, the cell number change is -16.3%. The AC50 under setting [2] was 0.411 µM [rising, full curve, poor fit].

Regarding `CCOc1ccc(-n2c(Cc3ccccc3)nnc2SCc2c(C)noc2C)cc1`, the cell number change was -5.35%.

`CCOc1ccc(C(=O)NCC(=O)NCC(c2cccs2)N2CCOCC2)cc1` (stereo not given): the cell number change was found to be 28.5%. In addition, the AC50 under setting [2] is 29.1 µM [rising, single point].

For the compound `O=C(c1cnn2cccnc12)N1CCN(c2ccccc2)CC1`, the cell number change was found to be 59.8%. In addition, the AC50 under setting [1] was 23.1 µM [rising, single point]. For the same compound, the half-maximal activity concentration (AC50) under setting [2] is 29.1 µM [rising, single point].

Regarding `CCOC(=O)N1CCN(CCC(=O)Nc2cc([N+](=O)[O-])ccc2OC)CC1`, the cell number change was -66.7%. Also, under setting [1], the AC50 is 4.61 µM [falling, full curve].

With `Nn1c(SCc2cn3ccsc3n2)nnc1-c1ccncc1`, the cell number change came to 6.9%. In addition, the AC50 under setting [2] was 23.1 µM [falling, partial curve].

Take `Oc1ccc(/C=N/Nc2ccnc3cc(Cl)ccc23)c(O)c1O`: the cell number change worked out at 12.1%. Also, the AC50 under setting [2] was 0.00461 µM [rising, full curve, poor fit].

For the compound `COc1ccc(OC)c(NC(=O)C2CCCN(S(C)(=O)=O)C2)c1` (stereo not given), the AC50 under setting [2] was 29.1 µM [rising, single point].

As to `O=C(O)CC1(c2ccc(F)cc2)C2CC3CC(C2)CC1C3` (stereo not given), the cell number change is -5.63%. Also, the AC50 under setting [2] was 3.66 µM [falling, single point].

Turning to `Cc1ccccc1OCCC(=O)OCC(=O)Nc1ccc2[nH]c(=O)[nH]c2c1`, the cell number change was -49.3%. The AC50 under setting [1] is 29.1 µM [falling, single point]. Further, the AC50 under setting [2] was 29.1 µM [falling, single point].

For `Cc1nnc(SCC(=O)Nc2ccc(N3CCOCC3)cc2)n1Cc1ccccc1`, the cell number change was found to be 22.4%. Besides, the AC50 under setting [2] was 2.91 µM [rising, full curve, poor fit].

`CCN(c1ccccc1)c1nc(C#N)nc(N(CC)c2ccccc2)n1`: the cell number change was 15.8%. In addition, under setting [2], the AC50 was 6.51 µM [rising, single point].

For `O=C(CN1C(=O)CCC1=O)Nc1nc(-c2ccccn2)cs1`, the cell number change is -28.2%.

For `CCOC(=O)CC1C(=O)NCCN1C(=O)c1ccc(Cl)cc1` (stereo not given), the cell number change was -28.2%. Further, under setting [2], the AC50 is 6.51 µM [falling, partial curve].

Regarding `COCCNC(=O)c1cccc(OC2CCN(Cc3ccc(C(C)C)cc3)CC2)c1`, the cell number change was -5.11%. Further, under setting [2], the AC50 is 18.4 µM [rising, single point].

`CCN1CCCC1CNC(=O)c1cc2c(OC)c(OC)c(OC)cc2[nH]1` (stereo not given): the cell number change amounted to 19.4%.

With `COc1ccc(OCC(=O)NC2CCCc3ccccc32)cc1` (stereo not given), the cell number change was determined as 10.5%. Under setting [2], the AC50 was 5.62 µM [falling, single point].

Take `O=C(COC(=O)/C=C/c1ccccc1)NC(=O)NCc1ccccc1`: the cell number change was -17.8%. Besides, the concentration at half-maximal activity (AC50) under setting [2] is 0.00461 µM [rising, full curve, poor fit].

Regarding `O=C(O)C1C2C=CC(C2)C1C(=O)N1CCN(C/C=C/c2ccccc2)CC1` (stereo not given), the cell number change is 5.37%. In addition, the AC50 under setting [2] is 29.1 µM [rising, single point].

`COc1ccccc1OCCNC(=O)c1c(-c2ccccc2Cl)noc1C`: the cell number change is -23.5%. In addition, the AC50 under setting [2] is 29.1 µM [falling, single point].

Take `CCC1(c2ccc(F)cc2)NC(=O)N(CC(=O)N2CCc3ccccc3C2)C1=O` (stereo not given): under setting [1], the AC50 was 6.51 µM [rising, single point].

With `C=CCOC(=O)C1=C(C)NC(=O)NC1/C=C/c1ccccc1OC` (stereo not given), the cell number change came to 16.6%. Further, under setting [2], the AC50 was 29.1 µM [rising, single point].

For `COc1ccc(-c2nnc(SC)n2C)cc1`, the cell number change was -2.33%. In addition, under setting [2], the AC50 was 0.13 µM [falling, partial curve, poor fit].

As to `COc1ccc(Oc2coc3cc(OC(=O)c4cncc(Br)c4)ccc3c2=O)cc1`, the cell number change is -10.4%. The AC50 under setting [1] was 6.51 µM [falling, single point]. Also, the AC50 under setting [2] is 6.51 µM [falling, single point].
